Results reported in PubChem BioAssay AID588590 (National Center for Advancing Translational Sciences (NCATS), 2011).
In all, about 390,000 compounds went through this assay and about 4,000 (1%) were called active. This list was built around the results that the source calls inconclusive (neither active nor inactive); the mix of calls is not that of the screen. Calls follow the shape of the dose curve; as a rule, active = well fitted inhibition curve with a large enough effect; inconclusive = small, poorly fitted or top-dose-only effect, or another doubt; inactive = no such curve, though single readings can be large or run the other way. Potencies of inconclusive entries are doubtful fits and often do not repeat.

By UniProt entry, the sequences of proteins in these tests, tags left out. Where a name states a change or a piece, a line headed by the entry shows the natural chain unless it says otherwise.
UniProt Q9UNA4: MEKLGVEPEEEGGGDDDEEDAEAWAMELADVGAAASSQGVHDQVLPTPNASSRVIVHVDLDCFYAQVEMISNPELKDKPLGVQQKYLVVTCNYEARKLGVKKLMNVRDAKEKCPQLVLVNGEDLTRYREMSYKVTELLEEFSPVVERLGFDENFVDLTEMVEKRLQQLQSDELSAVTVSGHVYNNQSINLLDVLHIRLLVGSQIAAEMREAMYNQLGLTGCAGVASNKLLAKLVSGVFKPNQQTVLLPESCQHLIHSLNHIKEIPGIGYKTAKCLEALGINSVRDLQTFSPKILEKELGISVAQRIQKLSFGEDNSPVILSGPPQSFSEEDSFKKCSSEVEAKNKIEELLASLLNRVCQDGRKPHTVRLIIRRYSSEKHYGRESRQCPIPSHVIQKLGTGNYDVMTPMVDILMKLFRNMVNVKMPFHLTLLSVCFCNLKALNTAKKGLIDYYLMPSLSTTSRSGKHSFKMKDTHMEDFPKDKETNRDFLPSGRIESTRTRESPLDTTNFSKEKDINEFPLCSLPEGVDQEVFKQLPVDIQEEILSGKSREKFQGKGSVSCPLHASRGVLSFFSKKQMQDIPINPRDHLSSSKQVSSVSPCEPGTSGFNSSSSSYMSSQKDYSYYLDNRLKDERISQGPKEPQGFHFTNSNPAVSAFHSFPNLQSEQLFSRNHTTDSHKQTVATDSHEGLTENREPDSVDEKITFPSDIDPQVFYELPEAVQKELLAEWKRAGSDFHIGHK

These molecules were tested against DNA polymerase iota (Homo sapiens) (UniProt Q9UNA4) (assay: qHTS for Inhibitors of Polymerase Iota). Details: Pol iota fluorescent replication assay, 10 min; series mostly up to 115 µM.
In short: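 Fluorescent replication assay read twice, at 0 min and 10 min after adding 50 nM (final) substrate. Enzyme (10 nM) and compounds were first incubated 15 min at room temperature; enzyme-free buffer wells were negative controls.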
Potency is read from the fitted curve at half-maximal effect.

SMILES	Potency
Cc1cc(=O)oc2cc(OCC(=O)N/N=C/c3cc([N+](=O)[O-])ccc3O)ccc12	inconclusive: 100 µM [inhibitor, single point]
COc1ccc(-c2cc(=O)n(CCC#N)[nH]2)cc1	inconclusive: 0.708 µM [inhibitor, full curve, poor fit]
CC(C)(C)NC(=O)[C@@H]1C[C@@H]2CCCC[C@@H]2CN1C[C@@H](O)[C@H](Cc1ccccc1)NC(=O)[C@H](CC(N)=O)NC(=O)c1ccc2ccccc2n1	inconclusive: 5.01 µM [inhibitor, full curve, poor fit]
CCOc1ccccc1CNC(=O)CSc1n[nH]c(-c2ccccc2)n1	inactive
O=C(CSc1nc2c(sc3ccccc32)c(=O)n1CCCN1CCCC1)NCc1ccco1	inconclusive: 22.4 µM [inhibitor, full curve, poor fit]
CCOC(=O)CSc1nnc(NC(=O)CN2CCCCC2)s1	inactive
O=c1c2ccccc2nc(/C=C/c2cccc(Br)c2)n1CCCO	inconclusive: 35.5 µM [inhibitor, partial curve, poor fit]
Cc1ccc2nc3c(cc(C#N)c(=O)n3-c3nnc(SCc4ccc(F)cc4)s3)c(=O)n2c1	inactive
COc1ccccc1OCCCCCCN1CCN(C)CC1	inconclusive: 2 µM [inhibitor, full curve, poor fit]
Cc1ccc(-c2nnn(CC(=O)Nc3ccc(S(=O)(=O)N4CCC(C)CC4)cc3)n2)cc1	inconclusive: 56.2 µM [inhibitor, partial curve, poor fit]
CCOc1ccc(-n2c(SCc3ccccc3)nc3c([nH]c4ccccc43)c2=O)cc1	inactive
Cc1ccc(C)c(CN2CCC(CNC(=O)CCc3nnc4ccc(N5CCCCC5)nn34)CC2)c1	inconclusive: 89.1 µM [inhibitor, single point]
CCNC(=O)CSc1nc2cc(S(=O)(=O)Nc3ccc(OC)cc3)ccc2o1	inconclusive: 89.1 µM [inhibitor, single point]
Cc1ccc(C)c(N2CCN(C(=O)CCc3nnc4n(C)c(=O)c5ccccc5n34)CC2)c1	inactive
O=C(COC(=O)c1c[nH]c(=O)[nH]c1=O)Nc1ccccc1	inconclusive: 100 µM [inhibitor, partial curve, poor fit]
O=C1C[C@H](c2ccc(O)cc2)Oc2cc(O[C@@H]3O[C@H](CO)[C@@H](O)[C@H](O)[C@H]3O)cc(O[C@@H]3O[C@H](CO)[C@@H](O)[C@H](O)[C@H]3O)c21	inactive
Cc1[nH]c2ccccc2c1/C=N/NC(=O)c1cccc(Br)c1	inactive
COc1ccc(NS(=O)(=O)c2cccc(C(=O)OCC(=O)Nc3cc(C)on3)c2)cc1	inconclusive: 79.4 µM [inhibitor, partial curve, poor fit]
COc1ccc(C(=O)NCc2nnc(SCC(=O)Nc3ccccc3OC)o2)cc1	inactive
S=c1nc(NCc2cccc(Cl)c2)c2ccccc2[nH]1	inactive
O=C(O)CSc1ncnc2sc3c(c12)CCC3	inactive
COc1ccc(-c2ccc(C3C(C#N)=C(N)Oc4n[nH]c(C)c43)o2)cc1 (configuration not stated)	inconclusive: 25.1 µM [inhibitor, single point]
COc1ccc(-n2c(Cc3cccn3C)nnc2SCC(=O)NCc2ccco2)cc1	inconclusive: 44.7 µM [inhibitor, partial curve, poor fit]

SMILES	Potency
Cc1ccc2c(c1)N(CC(=O)Nc1ccccc1C(F)(F)F)C(=O)c1cccnc1O2	inconclusive: 89.1 µM [inhibitor, single point]
COc1ccc(Cn2ccnc2SCC(=O)Nc2ccc3c(c2)OCCO3)cc1	inactive
Cc1ccc(-c2ccc(=O)n(CC(=O)NCCCN3CCCCC3C)n2)cc1 (configuration not stated)	inconclusive: 112 µM [inhibitor, single point]
CN(CC(=O)Nc1cccc(F)c1)C(=O)CSc1ccccc1F	inconclusive: 89.1 µM [inhibitor, single point]
COc1cccc(OC)c1C(=O)Nc1ccc(-c2nc3ncccc3o2)cc1	inactive
Cc1ccc(-c2cc(C(=O)NCc3ccco3)c3ccccc3n2)s1	inconclusive: 25.1 µM [inhibitor, partial curve, poor fit]
O=C(N/N=C/c1ccc(O)c(O)c1)c1ccc(-n2cnnn2)cc1	active: 44.7 µM
CC(=O)c1sc(Nc2nc3cc4c(cc3s2)OCO4)nc1C	inactive
COc1cccc(/C=C2\CCC(C3CCCC3)C2=O)c1OC (configuration not stated)	inconclusive: 22.4 µM [inhibitor, single point]
CSc1sc(C(=O)NCC2CC2)cc1S(=O)(=O)C(C)C	inconclusive: 79.4 µM [inhibitor, partial curve]
Cc1ccc(CNC(=O)c2ccc(Cl)c(S(N)(=O)=O)c2)n1C	inconclusive: 17.8 µM [inhibitor, partial curve, poor fit]
CN=c1scc(-c2ccc(F)cc2)n1/N=C/c1ccc(O)c(O)c1	inconclusive: 11.2 µM [inhibitor, full curve]
CCOCC(=O)Nc1nc(C)cc(C)n1	inconclusive: 28.2 µM [inhibitor, full curve]
O=C(O)c1ccc2c3c(cccc13)C(=O)N(OS(=O)(=O)c1ccccc1)C2=O	inconclusive: 31.6 µM [inhibitor, single point]
COc1cccc(/C=C2/Sc3ccc(C(=O)NCCN4CCCCCC4)cc3NC2=O)c1	inactive
O=C(NCCCC(NC(=O)OCc1ccccc1)C(=O)O)OCc1ccccc1 (configuration not stated)	inactive
COc1ccc(CNc2ncnc3nc[nH]c23)cc1	inconclusive: 89.1 µM [inhibitor, single point]
CCC(C(=O)O)N1C(=O)/C(=C/c2cccn2C)SC1=S (configuration not stated)	inconclusive: 10 µM [inhibitor, full curve, poor fit]
Cc1nc2cc(NC(=O)NCCC3=CCCCC3)ccc2o1	active: 89.1 µM
COc1ccc(NC(=O)c2c(NCc3ccc(C)o3)sc3c2CCCCC3)c(OC)c1	inconclusive: 14.1 µM [inhibitor, full curve, poor fit]
CCN(CC)c1ccc(NC(=O)C2CC(=O)N(Cc3ccccc3)C2)cc1 (configuration not stated)	inactive
Cc1ccc(S(=O)(=O)N(C)C)cc1NC(=O)c1ccncc1	inconclusive: 44.7 µM [inhibitor, partial curve, poor fit]
COc1ccc(/C(N)=N/OC(=O)CCCc2ccccc2)cc1OC	inconclusive: 89.1 µM [inhibitor, single point]

Ordered by length of the SMILES (smallest number first): some entries from above
SMILES	Potency
CCOCC(=O)Nc1nc(C)cc(C)n1	inconclusive: 28.2 µM [inhibitor, full curve]
COc1ccc(CNc2ncnc3nc[nH]c23)cc1	inconclusive: 89.1 µM [inhibitor, single point]
Cc1nc2cc(NC(=O)NCCC3=CCCCC3)ccc2o1	active: 89.1 µM
COc1cccc(/C=C2\CCC(C3CCCC3)C2=O)c1OC (configuration not stated)	inconclusive: 22.4 µM [inhibitor, single point]
CSc1sc(C(=O)NCC2CC2)cc1S(=O)(=O)C(C)C	inconclusive: 79.4 µM [inhibitor, partial curve]
CN(CC(=O)Nc1cccc(F)c1)C(=O)CSc1ccccc1F	inconclusive: 89.1 µM [inhibitor, single point]
Cc1ccc(S(=O)(=O)N(C)C)cc1NC(=O)c1ccncc1	inconclusive: 44.7 µM [inhibitor, partial curve, poor fit]
Cc1ccc(-c2cc(C(=O)NCc3ccco3)c3ccccc3n2)s1	inconclusive: 25.1 µM [inhibitor, partial curve, poor fit]
Cc1ccc(CNC(=O)c2ccc(Cl)c(S(N)(=O)=O)c2)n1C	inconclusive: 17.8 µM [inhibitor, partial curve, poor fit]
CN=c1scc(-c2ccc(F)cc2)n1/N=C/c1ccc(O)c(O)c1	inconclusive: 11.2 µM [inhibitor, full curve]
O=C(NCCCC(NC(=O)OCc1ccccc1)C(=O)O)OCc1ccccc1 (configuration not stated)	inactive
CCN(CC)c1ccc(NC(=O)C2CC(=O)N(Cc3ccccc3)C2)cc1 (configuration not stated)	inactive
COc1ccc(NC(=O)c2c(NCc3ccc(C)o3)sc3c2CCCCC3)c(OC)c1	inconclusive: 14.1 µM [inhibitor, full curve, poor fit]
COc1cccc(/C=C2/Sc3ccc(C(=O)NCCN4CCCCCC4)cc3NC2=O)c1	inactive
Cc1ccc2c(c1)N(CC(=O)Nc1ccccc1C(F)(F)F)C(=O)c1cccnc1O2	inconclusive: 89.1 µM [inhibitor, single point]

Continuation:

SMILES	Potency
Cc1cc(C)c2c(c1)C1C=CCC1C(c1ccc(S(=O)(=O)N3CCOCC3)cc1)N2 (configuration not stated)	inactive
CC1(C)CC[C@]2(C(=O)O)CC[C@]3(CO)C(=CCC4[C@@]5(C)C[C@H](O)[C@H](O)[C@@](C)(C(=O)O)C5CC[C@]43C)[C@@H]2C1 (some centres not stated)	inconclusive: 25.1 µM [inhibitor, single point]
COc1cc(Cl)c(C)cc1NC(=O)CC1Oc2ccccc2NC1=O (configuration not stated)	inactive
O=C(COC(=O)Cc1ccc(S(=O)(=O)N2CCOCC2)s1)NCCc1ccccc1	inconclusive: 31.6 µM [inhibitor, partial curve, poor fit]
O=C(CCl)Nc1cc(-c2ccccc2)nn1-c1ccccc1	inconclusive: 35.5 µM [inhibitor, single point]
Cc1ccc2nc(Cl)nc(-c3ccccc3)c2c1	inactive
COc1cc(OC)cc(C(=O)NC(=S)NCCc2ccccc2)c1	inconclusive: 39.8 µM [inhibitor, partial curve, poor fit]
O=c1c(-c2ccnn2-c2ccccc2F)cnc2n1CCS2	inconclusive: 112 µM [inhibitor, single point]
Cc1ccc2c(CC(=O)OCc3cc(=O)n4c(n3)sc3ccccc34)coc2c1	inconclusive: 10 µM [inhibitor, full curve, poor fit]
O=C(NCCO)C(O)C(O)C(=O)NCCO (configuration not stated)	inactive
C=CCN(c1ccc(C(=O)Nc2ccc(NC(C)=O)cc2)cc1)S(C)(=O)=O	inactive
O=C(CNCc1ccc(F)cc1)Nc1ccc(C(=O)N2CCCCC2)cc1	inactive
CC1(C)CC(=O)C2=C(C1)Nc1ccccc1N(C(=O)C1CC1)C2c1ccco1 (configuration not stated)	inconclusive: 63.1 µM [inhibitor, partial curve, poor fit]
O=C(Nc1nc(-c2cccs2)cs1)c1ccc(S(=O)(=O)N2CCCC2)cc1	inconclusive: 7.08 µM [inhibitor, partial curve]
CCN(C[C@H]1N[C@@](Cc2ccccc2)(C(=O)OC)[C@H]2C(=O)N(Cc3ccccc3)C(=O)[C@@H]12)C(=O)C1CCCCC1	inconclusive: 70.8 µM [inhibitor, single point]
COc1ccc2c(CC(=O)OCC(=O)N(C)c3c(N)n(Cc4ccccc4)c(=O)[nH]c3=O)coc2c1	inconclusive: 89.1 µM [inhibitor, partial curve]
COc1ccc(CNC(=O)C(C)n2nc(C)n3c(cc4occc43)c2=O)cc1 (configuration not stated)	inactive
COc1ccccc1C(c1nnnn1Cc1ccccc1)N1CCC(C(N)=O)CC1 (configuration not stated)	inconclusive: 39.8 µM [inhibitor, single point]
CCOc1ccc(Cl)cc1C(c1c(C)[nH][nH]c1=O)c1c(C)[nH][nH]c1=O	inconclusive: 39.8 µM [inhibitor, single point]
Cc1ccc(-n2[nH]c(C)c(/C=N/n3c(C)nc4ccccc4c3=O)c2=O)cc1	inconclusive: 25.1 µM [inhibitor, full curve, poor fit]
CCOc1cc(C(c2c(C)[nH]n(-c3ccccc3)c2=O)c2c(C)[nH]n(-c3ccccc3)c2=O)ccc1O	active: 1.58 µM
